We go through one molecule from patent publication US20240018268A1.

Sequences of proteins named here, by UniProt entry; tags and fusion partners are left off. A change or cut given only in a name is not applied to a line headed by its entry.
UniProt P10747: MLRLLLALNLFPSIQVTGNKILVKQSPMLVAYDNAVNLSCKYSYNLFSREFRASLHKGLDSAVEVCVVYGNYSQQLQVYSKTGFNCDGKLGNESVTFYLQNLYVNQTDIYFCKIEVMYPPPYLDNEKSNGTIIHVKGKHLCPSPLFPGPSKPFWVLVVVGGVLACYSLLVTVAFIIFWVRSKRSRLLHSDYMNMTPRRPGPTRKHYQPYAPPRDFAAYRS
UniProt P20963: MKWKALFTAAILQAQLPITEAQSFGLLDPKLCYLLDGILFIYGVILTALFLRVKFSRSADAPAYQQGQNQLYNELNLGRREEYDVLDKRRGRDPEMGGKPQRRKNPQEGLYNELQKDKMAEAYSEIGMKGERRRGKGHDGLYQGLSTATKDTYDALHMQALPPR

Assay [1] has as its target T1, anti-CD19 (SJ25C1-derived) chimeric antigen receptor (CAR), expressed on T cells or Jurkat cells (human) (UniProt P10747+P20963). In words: inferred from a T cell proliferation assay with plate-bound antibody.
Assay [2] concerns the target T1, anti-CD19 (SJ25C1-derived) chimeric antigen receptor (CAR), expressed on T cells or Jurkat cells (human). Kind of assay: flow cytometry, Alexa647-conjugated antibody, 20 to 0.0195 µg/mL, on CAR-transduced T cells; A-1 is the one named clone of the five. In general terms: In flow cytometry, cells or beads pass a laser one at a time.

These are yes or no findings as the source states them, for the method shown. Some binding calls cover weakened binding; strength is not graded here.

B1: anti-idiotype antibody clone A-1 (anti-ID A-1) (antibody, mouse IgG1, kappa, V domains shown)
VH: QVQLQQPGSELVRPGGSVKLSCKASDYTFTSYWMHWVRQRPGQGLEWIGNIYPGSGGTNYDEKFKRKATLTVDTSSSTAYMQLRSLTSEDSAVYYCTREVTTVAYYYSMDYWGQGTSVTVSS
VL: DIQMTQTTSSLSASLGDRVTISCRASQDISNYLNWYQQKPDGTVKLLIYYTSRLHSGVPSRFSGSGSGTDYSLTISNLEQEDIATYFCQQGKTVPFTFGSGTKLEIKR
Consider B1, for which the binding entry in assay [1] and in assay [2] was “binds” in each case.
